The record followed here is patent US20060188923A1.

Chains of the proteins cited; added tags and fusions are not shown. Lines headed by an entry give the natural chain unless they say otherwise; changes in a name come on top.
UniProt P13010: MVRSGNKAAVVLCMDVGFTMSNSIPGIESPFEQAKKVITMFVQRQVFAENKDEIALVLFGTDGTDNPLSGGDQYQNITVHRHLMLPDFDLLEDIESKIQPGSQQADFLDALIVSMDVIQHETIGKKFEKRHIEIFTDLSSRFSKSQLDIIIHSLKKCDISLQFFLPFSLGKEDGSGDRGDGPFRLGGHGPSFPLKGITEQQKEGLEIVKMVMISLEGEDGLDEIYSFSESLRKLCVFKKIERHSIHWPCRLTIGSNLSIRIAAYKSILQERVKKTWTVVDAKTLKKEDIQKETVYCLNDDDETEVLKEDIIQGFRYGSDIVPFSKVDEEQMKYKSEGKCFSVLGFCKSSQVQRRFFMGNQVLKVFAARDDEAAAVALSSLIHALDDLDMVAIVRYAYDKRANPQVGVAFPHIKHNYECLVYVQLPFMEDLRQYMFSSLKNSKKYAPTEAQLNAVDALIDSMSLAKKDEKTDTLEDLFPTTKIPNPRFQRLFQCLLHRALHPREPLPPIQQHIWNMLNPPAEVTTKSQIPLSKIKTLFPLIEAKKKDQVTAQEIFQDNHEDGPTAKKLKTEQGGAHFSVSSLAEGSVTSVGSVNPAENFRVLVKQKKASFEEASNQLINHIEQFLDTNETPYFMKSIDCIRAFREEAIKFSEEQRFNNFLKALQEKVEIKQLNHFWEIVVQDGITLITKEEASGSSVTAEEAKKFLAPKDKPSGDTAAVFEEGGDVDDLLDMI

No constants are given. Whether binding was seen depends on the method and setting. Some results given as binding are weak or reduced against the parent protein; the word gives no strength.

The target of the experiment is Recombinant Ku80 (rKu80) (human) (UniProt P13010). Put plainly: competition ELISA, purified B19 virus as competitor against immobilised rB19ECP. A general note: ELISA stands for enzyme-linked immunosorbent assay.

For the substance “Human parvovirus B19 virus (from UniProt P07299 1-781)”, the binding result is reported as “binds”.
